In this experiment the target is ARNT fused to DsRed-Monomer (plasmid pDsRed-Monomer-ARNT) (human) (UniProt P27540). Description: FRET or BRET; A549 cells co-transfected with pAcGFP1-AhR (donor) and pDsRed-Monomer-ARNT (acceptor); 24 h later treated with 0, 2, 4, 8 μM BaP for 24 h, or with 8 μM BaP with or without 300 μM CoCl2; high-content fluorescence imaging. Background: In BRET a luciferase serves as donor, and the signal depends on an acceptor being close.

Chains of the proteins cited; added tags and fusions are not shown. Residues count along the entry.
UniProt P27540: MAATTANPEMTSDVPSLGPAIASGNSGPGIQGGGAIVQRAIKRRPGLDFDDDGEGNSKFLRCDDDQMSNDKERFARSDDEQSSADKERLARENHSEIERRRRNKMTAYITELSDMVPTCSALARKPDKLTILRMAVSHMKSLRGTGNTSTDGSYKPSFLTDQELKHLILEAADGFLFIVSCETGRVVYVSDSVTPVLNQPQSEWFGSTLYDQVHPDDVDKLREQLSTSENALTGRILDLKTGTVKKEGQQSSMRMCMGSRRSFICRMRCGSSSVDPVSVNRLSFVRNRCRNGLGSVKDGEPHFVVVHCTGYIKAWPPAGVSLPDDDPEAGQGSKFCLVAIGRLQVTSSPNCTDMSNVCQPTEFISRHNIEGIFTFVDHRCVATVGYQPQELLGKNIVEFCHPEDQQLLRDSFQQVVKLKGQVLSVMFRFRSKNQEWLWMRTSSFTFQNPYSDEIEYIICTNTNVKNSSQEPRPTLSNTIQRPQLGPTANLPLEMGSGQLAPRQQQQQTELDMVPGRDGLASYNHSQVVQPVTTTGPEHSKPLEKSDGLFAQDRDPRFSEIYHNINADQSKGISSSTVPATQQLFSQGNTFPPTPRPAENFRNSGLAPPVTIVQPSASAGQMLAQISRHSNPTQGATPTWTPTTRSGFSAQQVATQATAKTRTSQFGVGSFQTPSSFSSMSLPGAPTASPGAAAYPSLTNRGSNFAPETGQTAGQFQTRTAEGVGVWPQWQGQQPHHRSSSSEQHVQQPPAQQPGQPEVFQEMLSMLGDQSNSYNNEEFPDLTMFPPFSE
UniProt P35869, residues 11-848: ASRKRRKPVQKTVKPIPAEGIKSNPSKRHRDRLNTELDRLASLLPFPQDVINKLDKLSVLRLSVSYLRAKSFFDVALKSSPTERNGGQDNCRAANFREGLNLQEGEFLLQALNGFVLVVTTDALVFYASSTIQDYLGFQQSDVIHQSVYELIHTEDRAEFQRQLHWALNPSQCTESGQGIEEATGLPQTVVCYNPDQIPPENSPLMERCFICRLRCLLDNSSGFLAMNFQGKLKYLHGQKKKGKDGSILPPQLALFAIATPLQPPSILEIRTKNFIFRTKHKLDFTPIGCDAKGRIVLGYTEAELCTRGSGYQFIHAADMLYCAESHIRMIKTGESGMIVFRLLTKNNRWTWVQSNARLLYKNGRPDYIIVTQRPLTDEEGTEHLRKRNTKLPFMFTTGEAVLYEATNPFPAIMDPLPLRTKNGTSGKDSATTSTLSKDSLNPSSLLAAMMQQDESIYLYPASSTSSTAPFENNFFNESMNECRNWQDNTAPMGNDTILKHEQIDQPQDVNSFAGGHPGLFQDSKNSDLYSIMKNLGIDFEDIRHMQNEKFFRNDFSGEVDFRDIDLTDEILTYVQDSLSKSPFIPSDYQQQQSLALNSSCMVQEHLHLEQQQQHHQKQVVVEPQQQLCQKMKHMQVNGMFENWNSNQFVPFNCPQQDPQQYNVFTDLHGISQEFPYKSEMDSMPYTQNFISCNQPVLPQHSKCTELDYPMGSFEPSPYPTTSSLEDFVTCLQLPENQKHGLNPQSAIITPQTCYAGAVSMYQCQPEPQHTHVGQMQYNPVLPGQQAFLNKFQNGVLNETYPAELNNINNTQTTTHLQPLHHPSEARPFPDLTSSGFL

These are yes or no findings as the source states them, for the method shown. Binding seen in cells or lysates may run through a third protein. Some results given as binding are weak or reduced against the parent protein; the word gives no strength.

Regarding “AhR fused to AcGFP1 (plasmid pAcGFP1-AhR) (from UniProt P35869 11-848) (receptor)”, the binding entry is “binds”.

These data come from article PMC9044668.
